{"source": "patent US11555006B2", "about": "“Elucidation of novel 13-series resolvins that increase with atorvastatin and clear infections” (The Brigham and Women's Hospital, Inc., priority 2015, dated 2023)", "key": {"[1]": {"test": "Plasma lipid mediator levels in reference plasma, healthy volunteers and sepsis patients (LC-MS-MS)", "format": "in vivo, human", "details": "endogenous level; for Reference Plasma lipid mediator level: NIST SRM 1950 plasma, mean; for Healthy Volunteer lipid mediator level / Sepsis Patients Plasma lipid mediator level: plasma; for Healthy Volunteer lipid mediator level: n=4, mean; for Sepsis Patients Plasma lipid mediator level: n=9, mean"}, "[2]": {"test": "Peripheral blood lipid mediator profiles pre and post-exercise in healthy volunteers (LC-MS-MS)", "format": "in vivo, human", "details": "endogenous level, mean, n=4"}}, "data": [{"molecule": "CCC(O)/C=C/C=C\\C=C\\C(O)C/C=C\\C=C\\C(O)CCCCCC(=O)O", "note": "(stereo not shown) [RvT1, 7,13,20-trihydroxy-docosapentaenoic acid]", "values": [{"measurement": "Reference Plasma lipid mediator level", "setting": "[1]", "result": 5.0, "unit": "pg/mL"}, {"measurement": "Healthy Volunteer lipid mediator level", "setting": "[1]", "result": 2.9, "unit": "pg/mL"}, {"measurement": "Sepsis Patients Plasma lipid mediator level", "setting": "[1]", "result": 6.6, "unit": "pg/mL"}, {"measurement": "Post-Exercise lipid mediator level", "setting": "[2]", "result": 3.6, "unit": "pg/mL"}, {"measurement": "Pre-Exercise lipid mediator level", "setting": "[2]", "result": 1.8, "unit": "pg/mL"}]}, {"molecule": "CCC=CCC=CC=CC(O)C(O)C=CC=CC(O)CCCCCC(=O)O", "note": "(stereo not shown) [RvT3, 7,12,13-trihydroxy-docosapentaenoic acid]", "values": [{"measurement": "Reference Plasma lipid mediator level", "setting": "[1]", "result": 1.0, "unit": "pg/mL"}, {"measurement": "Healthy Volunteer lipid mediator level", "setting": "[1]", "result": 0.9, "unit": "pg/mL"}, {"measurement": "Sepsis Patients Plasma lipid mediator level", "setting": "[1]", "result": 17.5, "unit": "pg/mL"}, {"measurement": "Post-Exercise lipid mediator level", "setting": "[2]", "result": 1.8, "unit": "pg/mL"}, {"measurement": "Pre-Exercise lipid mediator level", "setting": "[2]", "result": 0.8, "unit": "pg/mL"}]}, {"molecule": "CC/C=C\\C/C=C\\C=C\\C(O)C/C=C\\C=C\\C(O)CCCCCC(=O)O", "note": "(stereo not shown) [RvT4, 7,13-dihydroxy-docosapentaenoic acid]", "values": [{"measurement": "Reference Plasma lipid mediator level", "setting": "[1]", "result": 7.3, "unit": "pg/mL"}, {"measurement": "Healthy Volunteer lipid mediator level", "setting": "[1]", "result": 1.4, "unit": "pg/mL"}, {"measurement": "Sepsis Patients Plasma lipid mediator level", "setting": "[1]", "result": 15.2, "unit": "pg/mL"}, {"measurement": "Post-Exercise lipid mediator level", "setting": "[2]", "result": 1.8, "unit": "pg/mL"}, {"measurement": "Pre-Exercise lipid mediator level", "setting": "[2]", "result": 0.8, "unit": "pg/mL"}]}, {"molecule": "7,8,13-trihydroxy-docosapentaenoic [RvT2]", "values": [{"measurement": "Reference Plasma lipid mediator level", "setting": "[1]", "result": 2.2, "unit": "pg/mL"}, {"measurement": "Healthy Volunteer lipid mediator level", "setting": "[1]", "result": 1.2, "unit": "pg/mL"}, {"measurement": "Sepsis Patients Plasma lipid mediator level", "setting": "[1]", "result": 10.0, "unit": "pg/mL"}, {"measurement": "Post-Exercise lipid mediator level", "setting": "[2]", "result": 2.7, "unit": "pg/mL"}, {"measurement": "Pre-Exercise lipid mediator level", "setting": "[2]", "result": 0.6, "unit": "pg/mL"}]}, {"molecule": "CC/C=C\\C[C@H](O)/C=C/C=C\\C/C=C\\C/C=C\\C=C\\[C@@H](O)CCC(=O)O", "note": "[RvD6]", "values": [{"measurement": "Reference Plasma lipid mediator level", "setting": "[1]", "result": 1.5, "unit": "pg/mL"}, {"measurement": "Healthy Volunteer lipid mediator level", "setting": "[1]", "result": 27.6, "unit": "pg/mL"}, {"measurement": "Sepsis Patients Plasma lipid mediator level", "setting": "[1]", "result": 121.8, "unit": "pg/mL"}, {"measurement": "Post-Exercise lipid mediator level", "setting": "[2]", "result": 56.0, "unit": "pg/mL"}, {"measurement": "Pre-Exercise lipid mediator level", "setting": "[2]", "result": 37.8, "unit": "pg/mL"}]}]}
